Measured values published in US20240109881A1, “Heteroaryl Compounds as Ligand Directed Degraders of IRAK4” (Bristol-Myers Squibb Company, priority 2022, published 2024).

By UniProt entry, the sequences of proteins in these tests, tags left out.
UniProt Q9NWZ3, whole entry: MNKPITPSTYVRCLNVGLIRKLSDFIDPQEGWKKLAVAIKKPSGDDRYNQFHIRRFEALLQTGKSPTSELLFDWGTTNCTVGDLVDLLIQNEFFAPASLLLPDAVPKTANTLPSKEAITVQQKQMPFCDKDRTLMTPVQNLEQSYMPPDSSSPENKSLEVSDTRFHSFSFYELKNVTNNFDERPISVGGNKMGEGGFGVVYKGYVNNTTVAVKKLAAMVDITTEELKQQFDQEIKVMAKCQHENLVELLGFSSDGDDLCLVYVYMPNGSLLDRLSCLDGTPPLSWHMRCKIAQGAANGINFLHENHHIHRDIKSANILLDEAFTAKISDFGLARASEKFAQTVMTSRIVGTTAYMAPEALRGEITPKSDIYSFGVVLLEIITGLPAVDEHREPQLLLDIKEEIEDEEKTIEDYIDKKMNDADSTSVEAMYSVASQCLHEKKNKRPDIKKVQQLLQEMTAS

Biological target: IRAK4 (Homo sapiens, UniProt Q9NWZ3)
Test: LVL THP1 HTRF (THP1 Homogeneous Time Resolved Fluorescence)
Details: for LVL THP1 HTRF YMIN: THP1 cells, 18 h incubation with compound; for EC50: read-out: LVL THP1 HTRF EC50, THP1 cells, 18 h incubation with compound
Method: Cell culture media was prepared in a tissue culture hood in a sterile environment by adding 10% FBS and 1% Penicillin Streptomycin to 500 mL no phenol red RPMI 1640 media. The media was filtered through a Nalgene Bottle Top Filter and stored at 4° C.
For Homogenous Time Resolved Fluorescence (HTRF) assays, a Cisbio HTRF kit was used, which included: Lysis Buffer #1 4×, Blocking Reagent #3 100×, 20× Antibody 1 (Anti-IRAK4 d2), 20× Antibody 2 (Anti-IRAK4 k), and Detection Buffer.
The THP1 plates were prepared by the following method. For each dosing plate, a duplicate for CTG assay was prepared. Two THP-1 T-175 flasks could be used to plate one 384 well plate. The cells were collected from two T-175 flasks into 200 mL centrifuge tubes and spun down at 1200 rpm for 10 min. The supernatant was removed completely and cells were resuspended in 7.5 mL cell culture media. To 5 μL of the cell suspension was added 25 μL of media and 30 μL of Trypan Blue stain. The cells were counted using countess (automated cell counter, Thermo Fisher Scientific) twice and the viability and live cell count was recorded. The actual cell count was […] the live cell count. Based on the count, a cell suspension was prepared in colorless RPMI media for a final concentration of 7.5e6 cells/mL. Using Standard cassette multidrop combi, 20 μL of the 7.5e6 cells/mL cell stock was added to entire 384 well plate but for top half of column 1 (negative control) The multidrop combi was always primed to achieve a steady flow and washed after use with 20 mL de-ionized water followed by 20 mL alcohol. The cells were incubated in 5% CO2 incubator at 37° C.
Dosing was conducted using the following method. To dose assay plates and CTG plate was added 20 nL of compounds in DMSO using Echo (Beckman Coulter), and the plates were incubated at 37° C. for 18 h. The compound plates were spun at 1200 rpm for 1 min before dosing. The compound plate was sealed and properly stored during incubation.
After dosing, an HTRF assay was conducted using the following method. The treatment plates (IRAK4_HTRF) were centrifuged at 600 g for 10 min. Using CyBio Felix, Automated liquid handler (Analytikjena), 13 μL cell culture media was removed. To all columns, 7.5 μL lysis buffer was added, and an additional 7.5 μL of lysis buffer was added to column 1(top half, negative control). The plate was incubated on a shaker at room temperature for 2 h. The plate was spun down at 600 g for 5 min. Custom 20×IRAK4 Antibody obtained from CISBIO Anti-IRAK4-d2 (acceptor Ab) and Anti-IRAK4-K (donor Ab) were diluted to 1× antibody mix Using a multichannel repeater, 4 μL of 1× antibody mix was added to each wellThe plate was spun down at 600 g for 5 min and incubated in the dark at room temperature for 18 h The next day (after 18 hrs), HTRF assay plate was spun down at 600 g for 5 min and read at 665/615 nm using a Envision plate reader.

Row | Structure (SMILES) | LVL THP1 HTRF YMIN [%] | EC50 [nM]
1 | C[C@H](C#N)Nc1cc(-n2ncc3cc(C#N)c(N)nc32)ncc1-n1cc([C@H]2CC[C@H](CCN3CCN(c4ccc(C5(C)CCC(=O)NC5=O)cn4)CC3)CC2)nn1 (stereo partly shown) | 2.2 | 6.2
2 | C[C@H](C#N)Nc1cc(-n2ncc3cc(C#N)c(N)nc32)ncc1-n1cc([C@H]2CC[C@H](CCN3CCN(c4ccc(C5(C)CCC(=O)NC5=O)nc4)[C@@H](C)C3)CC2)nn1 (stereo partly shown) | 1.9 | 2.6
3 | C[C@H](C#N)Nc1cc(-n2ncc3cc(C#N)cnc32)ncc1-n1cc([C@H]2CC[C@H](CCN3CCN(c4ccc(N5CCC(=O)NC5=O)cc4)[C@H]4COC[C@H]43)CC2)nn1 | 28.37 | 119
4 | C[C@H](C#N)Nc1cc(-n2ncc3cc(C#N)cnc32)ncc1-n1cc([C@H]2CC[C@H](CCN3CCC(c4ccc(C5(F)CCC(=O)NC5=O)cc4)CC3)CC2)nn1 (stereo partly shown) | 3.6 | 2
5 | N#Cc1cnc2c(cnn2-c2cc(Nc3cnn(CC(F)(F)F)c3)c(-n3cc([C@H]4CC[C@H](CCN5CCN(c6ccc(C7CCC(=O)NC7=O)cc6)CC5)CC4)nn3)cn2)c1 (stereo partly shown) | 0.9 | 3

Structures were worked out from names or drawings and are uncertain.
